Experimental data reported in paper PMC4823924.
Results are given in words; binding and its absence hold for the method and conditions named. In cells and extracts the contact can be indirect. Some entries that bind do so weakly or less than the wild type.

The chains behind the UniProt entries cited, without tags or fusion partners.
UniProt P60953: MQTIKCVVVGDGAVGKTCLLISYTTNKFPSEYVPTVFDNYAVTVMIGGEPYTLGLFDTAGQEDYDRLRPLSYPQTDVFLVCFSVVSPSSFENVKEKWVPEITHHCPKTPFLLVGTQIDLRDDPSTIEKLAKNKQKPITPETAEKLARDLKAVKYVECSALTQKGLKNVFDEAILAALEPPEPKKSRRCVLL

Biological target: T1, ARHGAP10 (human (in A2780 cells)) (UniProt A1A4S6)
T1 sequence: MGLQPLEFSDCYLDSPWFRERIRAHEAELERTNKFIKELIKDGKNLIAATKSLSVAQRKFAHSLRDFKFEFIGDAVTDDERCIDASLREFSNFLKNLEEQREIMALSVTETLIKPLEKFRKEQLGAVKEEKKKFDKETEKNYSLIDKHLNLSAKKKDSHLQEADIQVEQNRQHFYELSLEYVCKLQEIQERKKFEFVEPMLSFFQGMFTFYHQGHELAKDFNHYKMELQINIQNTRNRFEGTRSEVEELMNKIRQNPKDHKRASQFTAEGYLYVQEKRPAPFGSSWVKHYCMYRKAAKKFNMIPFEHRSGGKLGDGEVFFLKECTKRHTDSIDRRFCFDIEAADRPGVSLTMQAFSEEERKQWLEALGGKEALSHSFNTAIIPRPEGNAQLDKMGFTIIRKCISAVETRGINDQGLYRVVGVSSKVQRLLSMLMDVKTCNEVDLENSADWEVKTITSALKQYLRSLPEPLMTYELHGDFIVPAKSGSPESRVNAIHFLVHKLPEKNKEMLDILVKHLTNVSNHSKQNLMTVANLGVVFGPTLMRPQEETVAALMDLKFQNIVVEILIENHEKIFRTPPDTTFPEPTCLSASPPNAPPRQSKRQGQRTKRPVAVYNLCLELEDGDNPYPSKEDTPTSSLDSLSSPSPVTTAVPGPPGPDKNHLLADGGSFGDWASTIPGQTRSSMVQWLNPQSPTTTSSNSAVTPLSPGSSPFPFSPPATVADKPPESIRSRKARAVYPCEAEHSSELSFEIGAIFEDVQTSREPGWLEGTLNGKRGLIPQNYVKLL
Assay: co-IP; anti-ARHGAP10 coupled to protein A-Sepharose beads in RIPA buffer, incubated with A2780 cell lysate at 4 °C for 2 h, washed three times with TBS (50 mmol/l Tris-HCl pH 7.4, 150 mmol/l NaCl); blot for Cdc42; control IgG

binding: binds
Substance: Cdc42 (from UniProt P60953 1-191)
